Data: the supplement of paper PMC11546906
Counter-ions that a name gives are not always drawn. The list shows a part of the results. This data set is noisy: repeats of one test often differ as much as different tests do.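 Screen of FDA-approved drugs, each combined with colistin at one-eighth of its MIC, against a multidrug-resistant mcr-1-positive clinical E. coli isolate; growth read as OD600 after 24 h. Bacteria without drug were the growth control and plain broth the blank. A combination counted as active when OD600 fell below 0.2.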

What follows are compounds tested on Escherichia coli 42 (mcr-1-positive clinical isolate) (assay: OD600 after 24 h growth with compound plus colistin (absorbance units (OD600)); higher = more bacterial growth (less inhibition)). Conditions: first compound 25 µM; colistin concentration 0.5 ug/mL; incubation time 24 h; 37 °C.

OD600, active:
CN(C)c1ccc(C(=C2C=CC(=[N+](C)C)C=C2)c2ccc(N(C)C)cc2)cc1 [Crystal Violet] + CCC(C)CCCC(=O)N[C@@H](CCN)C(=O)N[C@H](C(=O)N[C@@H](CCN)C(=O)N[C@H]1CCNC(=O)[C@H]([C@@H](C)O)NC(=O)[C@H](CCN)NC(=O)[C@H](CCN)NC(=O)[C@H](CC(C)C)NC(=O)[C@@H](CC(C)C)NC(=O)[C@H](CCN)NC1=O)[C@@H](C)O [colistin] 0.148

OD600, inactive:
Nc1cccc2c1C(=O)N(C1CCC(=O)NC1=O)C2=O (configuration not stated) [Pomalidomide] + CCC(C)CCCC(=O)N[C@@H](CCN)C(=O)N[C@H](C(=O)N[C@@H](CCN)C(=O)N[C@H]1CCNC(=O)[C@H]([C@@H](C)O)NC(=O)[C@H](CCN)NC(=O)[C@H](CCN)NC(=O)[C@H](CC(C)C)NC(=O)[C@@H](CC(C)C)NC(=O)[C@H](CCN)NC1=O)[C@@H](C)O [colistin] 1.07
CC(C)C[C@H](NC(=O)CNC(=O)c1cc(Cl)ccc1Cl)B(O)O [Ixazomib] + CCC(C)CCCC(=O)N[C@@H](CCN)C(=O)N[C@H](C(=O)N[C@@H](CCN)C(=O)N[C@H]1CCNC(=O)[C@H]([C@@H](C)O)NC(=O)[C@H](CCN)NC(=O)[C@H](CCN)NC(=O)[C@H](CC(C)C)NC(=O)[C@@H](CC(C)C)NC(=O)[C@H](CCN)NC1=O)[C@@H](C)O [colistin] 1.03
O=C(O)C[C@H](O)C[C@H](O)/C=C/c1c(C2CC2)nc2ccccc2c1-c1ccc(F)cc1 [Pitavastatin calcium] + CCC(C)CCCC(=O)N[C@@H](CCN)C(=O)N[C@H](C(=O)N[C@@H](CCN)C(=O)N[C@H]1CCNC(=O)[C@H]([C@@H](C)O)NC(=O)[C@H](CCN)NC(=O)[C@H](CCN)NC(=O)[C@H](CC(C)C)NC(=O)[C@@H](CC(C)C)NC(=O)[C@H](CCN)NC1=O)[C@@H](C)O [colistin] 1.01
C[C@H]1[C@H](OC(=O)CCC(=O)O)O[C@@H]2O[C@@]3(C)CC[C@H]4[C@H](C)CC[C@@H]1[C@@]24OO3 [Artesunate] + CCC(C)CCCC(=O)N[C@@H](CCN)C(=O)N[C@H](C(=O)N[C@@H](CCN)C(=O)N[C@H]1CCNC(=O)[C@H]([C@@H](C)O)NC(=O)[C@H](CCN)NC(=O)[C@H](CCN)NC(=O)[C@H](CC(C)C)NC(=O)[C@@H](CC(C)C)NC(=O)[C@H](CCN)NC1=O)[C@@H](C)O [colistin] 0.575
CCCN(CCC)S(=O)(=O)c1ccc(C(=O)O)cc1 [Probenecid] + CCC(C)CCCC(=O)N[C@@H](CCN)C(=O)N[C@H](C(=O)N[C@@H](CCN)C(=O)N[C@H]1CCNC(=O)[C@H]([C@@H](C)O)NC(=O)[C@H](CCN)NC(=O)[C@H](CCN)NC(=O)[C@H](CC(C)C)NC(=O)[C@@H](CC(C)C)NC(=O)[C@H](CCN)NC1=O)[C@@H](C)O [colistin] 1.15
Cc1cc2c(s1)Nc1ccccc1N=C2N1CCN(C)CC1 [Olanzapine] + CCC(C)CCCC(=O)N[C@@H](CCN)C(=O)N[C@H](C(=O)N[C@@H](CCN)C(=O)N[C@H]1CCNC(=O)[C@H]([C@@H](C)O)NC(=O)[C@H](CCN)NC(=O)[C@H](CCN)NC(=O)[C@H](CC(C)C)NC(=O)[C@@H](CC(C)C)NC(=O)[C@H](CCN)NC1=O)[C@@H](C)O [colistin] 0.856
CC(CCc1ccccc1)NCC(O)c1ccc(O)c(C(N)=O)c1 (configuration not stated) [Labetalol hydrochloride] + CCC(C)CCCC(=O)N[C@@H](CCN)C(=O)N[C@H](C(=O)N[C@@H](CCN)C(=O)N[C@H]1CCNC(=O)[C@H]([C@@H](C)O)NC(=O)[C@H](CCN)NC(=O)[C@H](CCN)NC(=O)[C@H](CC(C)C)NC(=O)[C@@H](CC(C)C)NC(=O)[C@H](CCN)NC1=O)[C@@H](C)O [colistin] 1.06
CC(C)(CO)c1cc2cc(NC(=O)C3(c4ccc5c(c4)OC(F)(F)O5)CC3)c(F)cc2n1C[C@@H](O)CO [Tezacaftor] + CCC(C)CCCC(=O)N[C@@H](CCN)C(=O)N[C@H](C(=O)N[C@@H](CCN)C(=O)N[C@H]1CCNC(=O)[C@H]([C@@H](C)O)NC(=O)[C@H](CCN)NC(=O)[C@H](CCN)NC(=O)[C@H](CC(C)C)NC(=O)[C@@H](CC(C)C)NC(=O)[C@H](CCN)NC1=O)[C@@H](C)O [colistin] 0.999
NS(=O)(=O)Cc1noc2ccccc12 [Zonisamide] + CCC(C)CCCC(=O)N[C@@H](CCN)C(=O)N[C@H](C(=O)N[C@@H](CCN)C(=O)N[C@H]1CCNC(=O)[C@H]([C@@H](C)O)NC(=O)[C@H](CCN)NC(=O)[C@H](CCN)NC(=O)[C@H](CC(C)C)NC(=O)[C@@H](CC(C)C)NC(=O)[C@H](CCN)NC1=O)[C@@H](C)O [colistin] 1.15
CCOC(=O)[C@H](CCc1ccccc1)N[C@@H](C)C(=O)N1[C@H](C(=O)O)C[C@@H]2CCC[C@@H]21 [Ramipril] + CCC(C)CCCC(=O)N[C@@H](CCN)C(=O)N[C@H](C(=O)N[C@@H](CCN)C(=O)N[C@H]1CCNC(=O)[C@H]([C@@H](C)O)NC(=O)[C@H](CCN)NC(=O)[C@H](CCN)NC(=O)[C@H](CC(C)C)NC(=O)[C@@H](CC(C)C)NC(=O)[C@H](CCN)NC1=O)[C@@H](C)O [colistin] 0.891
CN(C)CC/C=C1/c2ccccc2Sc2ccc(Cl)cc21 [Chlorprothixene hydrochloride] + CCC(C)CCCC(=O)N[C@@H](CCN)C(=O)N[C@H](C(=O)N[C@@H](CCN)C(=O)N[C@H]1CCNC(=O)[C@H]([C@@H](C)O)NC(=O)[C@H](CCN)NC(=O)[C@H](CCN)NC(=O)[C@H](CC(C)C)NC(=O)[C@@H](CC(C)C)NC(=O)[C@H](CCN)NC1=O)[C@@H](C)O [colistin] 1.16

For convenience, part of the list above:
OD600, inactive:
NS(=O)(=O)Cc1noc2ccccc12 [Zonisamide] + CCC(C)CCCC(=O)N[C@@H](CCN)C(=O)N[C@H](C(=O)N[C@@H](CCN)C(=O)N[C@H]1CCNC(=O)[C@H]([C@@H](C)O)NC(=O)[C@H](CCN)NC(=O)[C@H](CCN)NC(=O)[C@H](CC(C)C)NC(=O)[C@@H](CC(C)C)NC(=O)[C@H](CCN)NC1=O)[C@@H](C)O [colistin] 1.15
CCOC(=O)[C@H](CCc1ccccc1)N[C@@H](C)C(=O)N1[C@H](C(=O)O)C[C@@H]2CCC[C@@H]21 [Ramipril] + CCC(C)CCCC(=O)N[C@@H](CCN)C(=O)N[C@H](C(=O)N[C@@H](CCN)C(=O)N[C@H]1CCNC(=O)[C@H]([C@@H](C)O)NC(=O)[C@H](CCN)NC(=O)[C@H](CCN)NC(=O)[C@H](CC(C)C)NC(=O)[C@@H](CC(C)C)NC(=O)[C@H](CCN)NC1=O)[C@@H](C)O [colistin] 0.891
